The target of this test is SNAPf-IL-2Rα stably expressed in HeLa cells (IL-2Rα fused to an N-terminal SNAPf-tag) (UniProt P01589). The test is described as follows: dual-colour single-molecule TIRF microscopy on live HeLa cells, 1 nM labelled ligand.

Protein sequences, listed by entry. Tags and fused reporters are not part of them. Residues count along the entry.
UniProt P01589, residues 22-272: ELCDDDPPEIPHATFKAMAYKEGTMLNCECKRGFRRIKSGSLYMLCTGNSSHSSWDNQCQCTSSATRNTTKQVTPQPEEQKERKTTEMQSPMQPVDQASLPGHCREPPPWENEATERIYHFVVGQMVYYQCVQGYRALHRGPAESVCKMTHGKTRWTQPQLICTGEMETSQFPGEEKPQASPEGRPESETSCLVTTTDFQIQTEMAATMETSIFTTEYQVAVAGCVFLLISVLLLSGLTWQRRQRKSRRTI

In US20240352084A1 one finds binding data, which are given here for one molecule.

Results are given in words; binding and its absence hold for the method and conditions named. Some results given as binding are weak or reduced against the parent protein; the word gives no strength. Where a sequence is shown, tags or fusion partners need not be part of it.

B1: Dy547P1/Dy647P1 conjugated ybbR-Switch-2 (N-terminal MBP and YbbR tag, C-terminal histidine tag, from E. coli) (ligand, not shown: large carriers; small tags and cut ends)
chain: DSLEFIASKLAAPTSSSTKKTQLQLEHLLLDLQMILNGINNYKNPKLHLMLSYGFYMPKKATELKHLQCLEEELKPLEEVLNLAQSKNFHLRPRDLISNINVIVLELKGSETTFMCEYADETATIVEFLNRWITFCQSIIS
modifications: Dy547P1 or Dy647P1 dye conjugated (ybbR tag)
In the case of B1, the binding entry was “binds”.
